{
  "source": "patent US10016409B2",
  "about": "“Method for improving interstitial flow” (priority 2012, dated 2018)",
  "test_system": "Tg-SwDI mice",
  "experiment": "Cerebral artery reactivity to CO2 supply (vascular pulsation driving force) in Tg-SwDI mice",
  "type": "in vivo",
  "details": "average±standard error, no difference vs ordinary feed, p>0.10",
  "from_the_text": "In brain interstitial flow in a central nervous system, vascular wall motion caused by vascular pulsation of artery serves as a driving force so that harmful proteins are excreted (see Mechanisms to explain the reverse perivascular transport of solutes out of the brain. J Theor Biol. 2006 Feb. 21; 238(4): 962-74), Dilation of artery in vascular pulsation is caused by an increased blood pressure in artery due to pulsation of heart, and a decrease in dilation ability of artery attenuates vascular wall motion, and also reduces the interstitial flow. […] The degree of vascular elasticity in cerebral artery can be evaluated by using reactivity with a change in the concentration of blood carbon dioxide. Specifically, cerebral artery whose vascular elasticity and vascular pulsation driving force are maintained, has the ability of sufficiently dilating the vessel diameter afer an increase in the concentration of blood carbon dioxide, and maintains excretion ability for harmful proteins through h interstitial flow. On the other hand, cerebral artery whose vascular elasticity and vascular pulsation driving force are decreased, loses the ability of sufficiently dilating the vessel diameter in response to an increase in the concentration of blood carbon dioxide, and has its escretion ability for harmful proteins impaired. […]",
  "data": [
    {"compound": "O=C1CCc2cc(OCCCCc3nnnn3C3CCCCC3)ccc2N1", "note": "[cilostazol, 6-[4-(1-cyclohexyl-1H-tetrazole-5-yl)butoxy]3,4-dihydrocarbostyril]", "values": [
      {"measurement": "cerebral artery diameter in the AIR supply", "setting": "AIR group (no CO2), cilostazol-containing feed 0.3 wt % for 13.5 months, age 15 months", "result": "18.9±1.10", "unit": "μm"},
      {"measurement": "cerebral artery diameter before the CO2 supply", "setting": "cilostazol-containing feed for 8 months, age 4 to 12 months", "result": "21.3±3.85", "unit": "μm"}
    ]}
  ]
}
